Library screening results

Measurements from “University of Dundee, Small-Polar-MMV Screening Library” (2021), ChEMBL document CHEMBL3988442.

Values are the deposited “Percent Effect”, in %.
How 0% and 100% were set is not recorded. Most values in the screen are low, and negative values occur.
Compounds were drawn at random from those tested, without regard to their results.

Mtb growth Cornell: 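Whole-cell assay for inhibitors of Mycobacterium tuberculosis growth, labelled Cornell in the record; the read-out is not stated. The concentration is filed as 10 mM, unlikely as a test dose, so the dose is not known. Higher means stronger inhibition (inferred from two other growth screens of the library). Size under these conditions: about 53,000 compounds, about 900 of them at 50% or above in at least one test.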
Mtb heat-shock: 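Assay on Mycobacterium tuberculosis, filed only as a heat shock assay from Cornell; the read-out is not stated. The concentration is filed as 10 mM, unlikely as a test dose, so the dose is not known. Direction is inferred from retests: higher values go with stronger inhibition. Of about 69,000 compounds tested this way, about 930 (1.4%) reached 50% or more in at least one test.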

CCOC(C)c1nc(CNc2cccc(Cl)c2OC)cs1 (stereo unspecified) read Mtb heat-shock: 26.81%. Result for CCC[C@H]1CN(CCS(C)(=O)=O)C[C@@H]1NC(=O)c1cc[nH]n1 was Mtb growth Cornell: -27.02%; Mtb heat-shock: -7.853%. Cc1noc(C(C)N2CCN(c3ncnc4ccccc34)CC2)n1 (stereo unspecified) read Mtb growth Cornell: 17.9%; Mtb heat-shock: -9.484%. For O=C(O)C(F)(F)F.[H][C@]12CN(Cc3ccccc3Cl)C[C@@]1([H])OCCN(C(C)=O)C2 the result was Mtb growth Cornell: -0.1089%; Mtb heat-shock: 14.03%. CN1CC=C(c2noc(CCC(=O)N3CCCC3)n2)CC1 gave Mtb growth Cornell: 18.63%; Mtb heat-shock: 7.373%.

CC(C)c1nc2c(n1C)CCN(CCCc1nc3ccccc3o1)C2 read Mtb growth Cornell: -4.368%; Mtb heat-shock: 42.41%. For O=C(Nc1nncs1)N(Cc1cccc(O)c1)C1CC1 the result was Mtb growth Cornell: 20.12%; Mtb heat-shock: 4.555%. For Cc1ccc(F)cc1NC(=O)CCn1cncn1 the result was Mtb growth Cornell: -9.917%; Mtb heat-shock: -3.173%. Result for Cc1nn(C)c(C)c1NC(=O)CNc1cccc(CC(F)(F)F)c1 was Mtb growth Cornell: 32.44%; Mtb heat-shock: -14.78%. Cc1ccc2nc(-c3nc4c([nH]3)CCCNC4=O)cn2c1 gave Mtb heat-shock: -21.08%.

[H][C@@]12CN(Cc3cccnc3)CCO[C@]1([H])CN(Cc1scnc1C)C2 read Mtb growth Cornell: 16.05%; Mtb heat-shock: 1.629%. CC(C)c1nc(CN(C)C2CCN(CCc3ccncc3)C2)no1 (stereo unspecified) read Mtb heat-shock: -25.28%. Result for COc1cc(F)c(NC(=O)N(C)CCNC(=O)N(C)C)cc1F was Mtb heat-shock: -11.77%. Cn1nc(-c2ccccc2)c(Cl)c1C(=O)O gave Mtb growth Cornell: -19.82%; Mtb heat-shock: -17.89%. COCCCN(Cc1cnc(C2CCCCC2)nc1)C1CCN(C)CC1 read Mtb heat-shock: -16.15%.

For COc1cnc(C2(O)CCN(C(=O)c3cccnc3)CC2)c(OC)n1 the result was Mtb growth Cornell: 10.6%; Mtb heat-shock: -13.65%. For COc1ncccc1NC(=O)NCC(O)c1ccc(F)cc1F (stereo unspecified) the result was Mtb heat-shock: 3.37%. Result for c1cncc(OCc2noc3c2CN(Cc2ccoc2)CC3)c1 was Mtb heat-shock: -3.612%. Result for Cc1ccc(O)c(C(=O)N2CCOCC2c2c(C)nn(C)c2C)c1 (stereo unspecified) was Mtb heat-shock: 1.904%. For O=C(NCCc1ccco1)Nc1cc(C(F)(F)F)c[nH]c1=O the result was Mtb heat-shock: 9.339%.

COc1ccc(C)cc1CC(=O)N1CC[C@@]2(CCCO2)[C@@H](O)C1 read Mtb heat-shock: -5.801%. CC(NC(=O)NCCNc1cccc(F)c1C#N)c1cccs1 (stereo unspecified) gave Mtb heat-shock: -39.52%. For Cc1noc(CCCC(=O)Nc2ncccc2Br)n1 the result was Mtb growth Cornell: -30.93%; Mtb heat-shock: -13.99%. With Cc1ccc(CN2Cc3nnn(C)c3C(COCc3ccccc3)C2)o1.O=C(O)C(F)(F)F (stereo unspecified) the screen gave Mtb growth Cornell: -15.23%; Mtb heat-shock: -18.88%. Result for CCOc1nc2cnccc2n(CC(=O)NCCc2ccccc2)c1=O was Mtb growth Cornell: -7.356%; Mtb heat-shock: 0.05015%.

Result for CNS(=O)(=O)c1ccc(CNC(=O)NCC2CCOC2)cc1 (stereo unspecified) was Mtb heat-shock: -4.08%. CCN(C(=O)c1ccccc1I)C1CC(=O)NC1=O (stereo unspecified) gave Mtb growth Cornell: 24.72%; Mtb heat-shock: 25.79%. With O=C(NCC(F)(F)F)c1ccc(-c2ccco2)[nH]c1=O the screen gave Mtb heat-shock: 7.378%. Cn1ccnc1CN(CCO)C(=O)c1cc2ccccc2o1 gave Mtb heat-shock: -23.84%. CCCc1cc(=O)[nH]c(-n2nc(-c3cccs3)cc2N)n1 read Mtb growth Cornell: 94.38%; Mtb heat-shock: 106.1%.

Result for CCc1ccc(C2CC(=O)Nc3c2c(=O)[nH]n3C(C)C)cc1 (stereo unspecified) was Mtb growth Cornell: 2.82%; Mtb heat-shock: -4.272%. Cc1ccnc(C2CCN(C(=O)c3cnn(C)c3)CC2)n1 read Mtb growth Cornell: 19.18%; Mtb heat-shock: -23.08%. COc1ccc(CNC(=O)c2nn(C)c3c2CS(=O)(=O)CC3)cc1 gave Mtb heat-shock: -13.6%. With Cc1cc(CNC(=O)N2CCc3ccccc3C2CO)c(C)o1 (stereo unspecified) the screen gave Mtb heat-shock: 0.9694%. For O=C(O)c1ccccc1-n1cc(CN2CCC(c3cc[nH]n3)C2)cn1 (stereo unspecified) the result was Mtb growth Cornell: 2.287%; Mtb heat-shock: -11.39%.

Result for [H][C@@]12COC[C@]1([H])[C@@H](OCCN(C)C)CN2C(=O)c1ccc[nH]1 was Mtb growth Cornell: 13.8%; Mtb heat-shock: 13.08%. With [H][C@@]12CNC[C@]1([H])CN(Cc1c(C)noc1C)C2 the screen gave Mtb growth Cornell: -2.459%; Mtb heat-shock: 38.77%. Cn1cccc1C(=O)N1CCC2(CC1)CCN2S(C)(=O)=O gave Mtb growth Cornell: -13%; Mtb heat-shock: 25.32%. Cn1c(CCN2CCN(c3ccc(O)cc3)CC2)nc2ccccc21 read Mtb growth Cornell: 103.8%; Mtb heat-shock: -8.24%. For CNC(=O)[C@@H](CC(C)C)N1CCC[C@H]1C(=O)N(C)Cc1ccccc1.Cl the result was Mtb heat-shock: -8.207%.

Repeated from the top, 4 entries:

- CCOC(C)c1nc(CNc2cccc(Cl)c2OC)cs1 (stereo unspecified) | Mtb heat-shock: 26.81%
- CCC[C@H]1CN(CCS(C)(=O)=O)C[C@@H]1NC(=O)c1cc[nH]n1 | Mtb growth Cornell: -27.02%; Mtb heat-shock: -7.853%
- Cc1noc(C(C)N2CCN(c3ncnc4ccccc34)CC2)n1 (stereo unspecified) | Mtb growth Cornell: 17.9%; Mtb heat-shock: -9.484%
- O=C(O)C(F)(F)F.[H][C@]12CN(Cc3ccccc3Cl)C[C@@]1([H])OCCN(C(C)=O)C2 | Mtb growth Cornell: -0.1089%; Mtb heat-shock: 14.03%